These results are taken from paper PMC11476176.

By UniProt entry, the sequences of proteins in these tests, tags left out.
UniProt Q14247: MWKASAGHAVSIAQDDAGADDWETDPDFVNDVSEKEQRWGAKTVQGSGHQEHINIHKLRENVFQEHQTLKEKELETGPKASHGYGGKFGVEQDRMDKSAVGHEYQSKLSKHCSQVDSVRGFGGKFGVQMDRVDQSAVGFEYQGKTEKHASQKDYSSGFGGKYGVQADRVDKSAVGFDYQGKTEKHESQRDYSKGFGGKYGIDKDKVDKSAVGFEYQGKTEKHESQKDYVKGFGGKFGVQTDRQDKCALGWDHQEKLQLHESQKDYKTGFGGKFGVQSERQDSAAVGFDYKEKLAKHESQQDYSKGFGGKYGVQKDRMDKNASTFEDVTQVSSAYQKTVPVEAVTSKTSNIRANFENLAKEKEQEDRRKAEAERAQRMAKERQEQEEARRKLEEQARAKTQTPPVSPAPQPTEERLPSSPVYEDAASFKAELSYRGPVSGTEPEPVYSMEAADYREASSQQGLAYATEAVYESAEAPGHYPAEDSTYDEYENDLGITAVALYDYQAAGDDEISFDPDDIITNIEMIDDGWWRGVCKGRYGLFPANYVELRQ

This assay deals with T1, myc-AAMP (Angio-associated migratory cell protein) (human) (UniProt Q13685).
T1 sequence: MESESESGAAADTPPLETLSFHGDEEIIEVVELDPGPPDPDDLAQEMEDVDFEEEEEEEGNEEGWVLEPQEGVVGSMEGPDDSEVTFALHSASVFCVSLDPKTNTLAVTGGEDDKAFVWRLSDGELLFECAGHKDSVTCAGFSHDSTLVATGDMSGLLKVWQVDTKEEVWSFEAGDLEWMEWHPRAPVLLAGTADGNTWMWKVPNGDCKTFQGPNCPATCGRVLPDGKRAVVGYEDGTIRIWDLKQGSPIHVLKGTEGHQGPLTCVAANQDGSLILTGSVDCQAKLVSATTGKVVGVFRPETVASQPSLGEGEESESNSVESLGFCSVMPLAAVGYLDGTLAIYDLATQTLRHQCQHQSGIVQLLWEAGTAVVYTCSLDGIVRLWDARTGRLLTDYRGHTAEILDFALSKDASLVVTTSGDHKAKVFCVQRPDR
The assay is described as follows: co-IP; myc-co-IP from HUVECs transduced with AAMP lentivirus and treated with doxycycline for 24 h; Western blot of the precipitate. (A western blot detects proteins with antibodies after separation by electrophoresis.)

Results are given in words; binding and its absence hold for the method and conditions named. Binding seen in cells or lysates may run through a third protein. Where a sequence is shown, tags or fusion partners need not be part of it.

For the substance cortactin (from UniProt Q14247 1-550), the binding entry is listed as “no binding”.
